Test system: Gli-responsive luciferase reporter cells, SUFU pathway antagonism
Test: blockers of Gli reporter signaling – cell-based, luciferase luminescence, uHTS hits, dose response (AID 602464)

IC50: 2230 nM
SMILES: O=C(CCCCCCC(=O)Nc1ccccc1)NO

Source: PubChem BioAssay AID602464 (Sanford-Burnham Center for Chemical Genomics, 2012)
